Where a name gives a salt, the structure may show the parent alone. The list shows a part of the results. Single values are uncertain here, since repeats match poorly.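 The cells were human embryonic kidney cells carrying a Renilla luciferase gene, driven by the HSV-TK promoter, on a plasmid put in briefly by transfection. This is the first-round screen of about ten thousand compounds, looking for ones that raise reporter output.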

The values that follow come from the supplement of paper PMC7024190.

This assay concerns HEK 293FT. The experiment in a line: log relative Renilla luciferase luminescence (reporter expression vs reference, reference not stated) (log (base not stated)); higher = higher recombinant reporter expression. To be noted: 10 µM; time after transfection 48 h.
For `OCC(CO)N[C@H]1C[C@](O)(CO)[C@@H](O)[C@H](O)[C@H]1O` [Voglibose], the log was 0.0465.

As for `CC1(C)CC(=O)C(C2C3=C(CC(C)(C)CC3=O)Oc3ccccc32)C(=O)C1` (configuration not stated), the log is -0.134.

Turning to `COc1ccc2[nH]c([S+]([O-])Cc3ncc(C)c(OC)c3C)nc2c1` (configuration not stated) [Omeprazole], the log was -0.199.

As for `CC(CCc1ccc(O)cc1)NCCc1ccc(O)c(O)c1` (configuration not stated) [Dobutamine hydrochloride], the log is -0.00649.

Take `COc1cc2c(cc1OC)-c1cc3nc4ccccc4nc3n1C(C)(C)C2`: the log is -0.0675.

Take `CC(=O)CCCCn1c(=O)c2c(ncn2C)n(C)c1=O` [Pentoxifylline]: the log was 0.0956.

Turning to `Cc1c(OCC(F)(F)F)ccnc1C[S+]([O-])c1nc2ccccc2[nH]1` (configuration not stated) [Lansoprazole], the log was found to be 0.0217.
